Details: added into cultured cells or applied to animals

**Q.** For `CC[C@H](C)[C@H](NC(=O)[C@H](CC(C)C)NC(=O)[C@H](CCC(=O)O)NC(=O)[C@@H](NC(=O)[C@H](CO)NC(=O)[C@H](Cc1ccc(O)cc1)NC(=O)[C@@H]1CCCN1C(=O)[C@H](CCSC)NC(=O)[C@H](CCCNC(=N)N)NC(=O)[C@H](CC(=O)O)NC(=O)[C@H](CCCCN)NC(=O)[C@H](CC(=O)O)NC(=O)[C@H](CC(=O)O)NC(=O)[C@H](CC(=O)O)NC(=O)[C@H](CC(=O)O)NC(=O)[C@H](Cc1ccc(O)cc1)NC(=O)[C@H](CC(C)C)NC(=O)[C@H](CC(=O)O)NC(=O)[C@@H](N)CCCNC(=N)N)[C@@H](C)O)C(=O)N[C@@H](Cc1ccccc1)C(=O)N[C@@H](Cc1ccc(O)cc1)C(=O)N[C@H](C(=O)N[C@@H](CCC(=O)O)C(=O)N[C@@H](CCSC)C(=O)N[C@@H](CC(=O)O)C(=O)N1CCC[C@H]1C(=O)O)[C@@H](C)CC` [PTD-P15, arginine-asparaginic acid-leucine-tyrosine-asparaginic acid-asparaginic acid-asparaginic acid-asparaginic acid-lysine-asparaginic acid-arginine-methionine-proline-tyrosine-serine-threonine-glutamic acid-leucine-isoleucine-phenylalanine-tyrosine-isoleucine-glutamic acid-methionine-asparaginic acid-proline], which toxicity is on record?
**A.** Its toxicity is “no obvious toxicity”.
